Test results: paper PMC11768359, “2-Aminothiophene Derivatives—New Drug Candidates Against Leishmaniasis: Drug Design, Synthesis, Pharmacomodulation, and Antileishmanial Activity” (Pharmaceuticals, 2025)
Values joined by “and” are separate entries in the source; they are usually repeats but may differ in a detail not shown here. Equal values may be shown once.

System: promastigotes of L. amazonensis
Assay: Growth inhibition of promastigote forms of L. amazonensis (MTT)
Format: cell-based, Leishmania amazonensis
Conditions: SI = CC50/IC50 (macrophages / promastigotes)
Procedure: The in vitro tests utilized Leishmania amazonensis parasites (IFLA/BR/67/PH8). These leishmania cell lines were obtained from Oswaldo Cruz Foundation (FIOCRUZ)/Brazil. The promastigote forms were cultivated in Schneider’s insect medium at 26 °C in a biological oxygen demand (BOD) incubator. Schneider’s insect medium was supplemented with 20% fetal bovine serum (FBS) and 1% penicillin (100 U/mL) and streptomycin (µg/mL) (complete Schneider). Next, we differentiated them from promastigote forms by changing the conditions to Schneider’s insect medium supplemented with 5% FBS, pH 4.6, and a temperature of 32 °C to obtain axenic amastigote forms of L. amazonensis. Meanwhile, RAW 264.7 macrophages were cultured in […] cell culture flasks using DMEM medium supplemented with 10% FBS, 1% penicillin 100 U/mL, and 100 μg/mL streptomycin (complete DMEM) and incubated at 37 °C and 5% CO2.
Parasite growth inhibition was evaluated using the methodology described by Rodrigues et al. (2015). Cultures of logarithmically growing promastigote and axenic amastigote forms (1 × 10^6 parasites/mL) were incubated in 96-well plates containing 100 µL of supplemented Schneider’s medium in triplicate. Serial concentrations of 2-amino-thiophene and 2-amino-selenophene derivatives (10.00–0.156 μM) and the reference drugs meglumine antimoniate (500–40,000 μg/mL), amphoterecinB (0.1–2 μM), and pentamidine (3.12–100 µM) were added. BNP was used as a negative control. The cultures were incubated in a biological oxygen demand oven (model Eletrolab EL202, São Paulo, Brazil) at 26 °C for promastigotes and 32 °C for axenic amastigotes for 72 h. Then, 10 μL of MTT (5 mg/mL) was added to each well to colorimetrically evaluate growth inhibition. The plate was subsequently incubated for a further 4 h, followed by adding 50 μL of 10% sodium dodecyl sulfate solution for […] before the optical density of the culture was read on a microplate spectrophotometer reader. The reading was taken at the test and reference wavelengths of 540 and 620 nm using a microplate spectrophotometer. The negative control consisted of 0.2% […] with BNP, considered to be 100% viable.

| Compound | SI | SI (listed as pentamidine) |
| --- | --- | --- |
| N#Cc1ccc2[nH]cc(/C=N/c3[se]c4c(c3C#N)CCCC4)c2c1 [Compound 33] | 21.83 | – |
| N#Cc1c(/N=C/c2c[nH]c3cccc([N+](=O)[O-])c23)[se]c2c1CCCC2 [Compound 34] | 88.49 | – |
| Cc1cccc2c(/C=N/c3[se]c4c(c3C#N)CCCC4)c[nH]c12 [Compound 36] | 63.66 | – |
| N#Cc1c(/N=C/c2c[nH]c3cccc(Br)c23)[se]c2c1CCCC2 [Compound 37] | 53.71 | – |
| N#Cc1c(/N=C/c2c[nH]c3ccc(Br)cc23)[se]c2c1CCCC2 [Compound 38] | 68 and 68.45 | – |
| COc1cccc2[nH]cc(/C=N/c3[se]c4c(c3C#N)CCCC4)c12 [Compound 39] | 83.00 | – |
| N=C(N)c1ccc(OCCCCCOc2ccc(C(=N)N)cc2)cc1 [Pentamidine, reference compound] | 6.90 | 6.9 |
